Measurements from article doi:10.1101/2021.08.10.455789.
Results are given in words; binding and its absence hold for the method and conditions named. Binding seen in cells or lysates may run through a third protein. These calls come from enrichment with a bait or labelling near it, and not all partners need be listed.

How the values were obtained:
HMG-4::3xHA (C. elegans) = target: T1, HMG-4::3xHA (C. elegans) (UniProt P41848); assay: affinity purification with mass spectrometry
T1 sequence: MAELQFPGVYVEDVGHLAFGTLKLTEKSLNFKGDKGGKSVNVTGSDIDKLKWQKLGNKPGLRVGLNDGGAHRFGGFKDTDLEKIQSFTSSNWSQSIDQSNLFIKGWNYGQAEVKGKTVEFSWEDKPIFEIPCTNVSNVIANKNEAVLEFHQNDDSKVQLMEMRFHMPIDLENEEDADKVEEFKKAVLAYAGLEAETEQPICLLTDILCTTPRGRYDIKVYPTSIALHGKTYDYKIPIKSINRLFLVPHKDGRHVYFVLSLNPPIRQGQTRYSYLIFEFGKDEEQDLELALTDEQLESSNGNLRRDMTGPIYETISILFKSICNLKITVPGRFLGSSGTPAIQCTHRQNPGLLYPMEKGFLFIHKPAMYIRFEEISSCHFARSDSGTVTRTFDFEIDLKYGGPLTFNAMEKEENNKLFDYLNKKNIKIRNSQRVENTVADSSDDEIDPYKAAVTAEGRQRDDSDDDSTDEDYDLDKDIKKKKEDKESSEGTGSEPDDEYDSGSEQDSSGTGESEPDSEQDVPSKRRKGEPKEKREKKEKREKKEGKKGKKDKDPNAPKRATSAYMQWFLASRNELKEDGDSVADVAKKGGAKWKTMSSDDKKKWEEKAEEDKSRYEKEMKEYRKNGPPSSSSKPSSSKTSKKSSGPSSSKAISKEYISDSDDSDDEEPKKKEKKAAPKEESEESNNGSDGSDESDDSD

HMG-3::3xHA (C. elegans) = target: T2, HMG-3::3xHA (C. elegans) (UniProt O01683); assay: affinity purification with mass spectrometry
T2 sequence: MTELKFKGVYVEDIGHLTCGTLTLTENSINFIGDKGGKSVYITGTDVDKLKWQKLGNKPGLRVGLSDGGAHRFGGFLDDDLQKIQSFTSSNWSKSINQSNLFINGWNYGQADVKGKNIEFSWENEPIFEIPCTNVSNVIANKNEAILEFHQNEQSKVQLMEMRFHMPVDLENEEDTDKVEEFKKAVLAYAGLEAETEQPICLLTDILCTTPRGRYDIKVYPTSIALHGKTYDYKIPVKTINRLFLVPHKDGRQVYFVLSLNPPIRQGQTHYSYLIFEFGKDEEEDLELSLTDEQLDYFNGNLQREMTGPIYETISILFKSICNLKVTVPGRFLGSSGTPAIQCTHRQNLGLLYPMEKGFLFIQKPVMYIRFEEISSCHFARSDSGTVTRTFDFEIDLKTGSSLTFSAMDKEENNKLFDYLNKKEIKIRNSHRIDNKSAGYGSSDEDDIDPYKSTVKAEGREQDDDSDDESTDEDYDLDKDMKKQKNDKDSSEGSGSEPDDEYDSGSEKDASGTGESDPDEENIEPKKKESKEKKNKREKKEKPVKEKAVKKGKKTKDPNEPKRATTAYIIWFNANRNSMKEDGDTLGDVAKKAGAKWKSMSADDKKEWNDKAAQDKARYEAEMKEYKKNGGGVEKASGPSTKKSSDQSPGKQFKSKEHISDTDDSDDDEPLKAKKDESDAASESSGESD

binding (HMG-4::3xHA (C. elegans)): binds
binding (HMG-3::3xHA (C. elegans)): binds
B1: SPT-16 (protein, UniProt Q9N5R9 1-1030)
chain: MSGKRAVLNKDLFFQRAERLYEHWEKGADGLDSIKSLAFVYGETDNPYTKTSALFTWLFGHEIADTVLLLLKDHIYILGSNRKVEFFGSVTGDNQSSGKVPTVSTLLRDKTDKDAGNFEKLIDHIKSAGGDVGNFVKEKFSSEFVSSWNKALEEGGVNKNDVTLAFTHLFAVKDDKEMDLIRKSAQATTASWTAARARYVEIIDQEKRVRHSVLSNEFAAFMKDSKVQQALAKYEADTCYDPIVMSGGNYSFKWNHESSESHLHSQFGTIITSFGARLSEYCTNLTRTMLIFPSSELETAYEAILAAELAVIAALKPGAKLSDVYKIGIDTLTEKSPKLAETLNKKELGFATGIEFRESRLAISAKCDEVVKAGMVFIVYIGVDSIPNKNKGEKGKPAAIAISDTILVKEEGDNEILTEKAKSRLKSNVIKFKEEQENREAEKDNDQKKMLGRGQRSVVLTDQTRNKTTNEELRKERQKELGVQLNELAKARLSKQGGGTDEKKSKKSNVSYKTEERFPQDADVQKMLIFVDRKYDSVVVPIFGIPVPFHISMIKNCSQSVEGDFTYLRINFATPGSQVGKDSGQFPHPLAHYMKELTFRASNIKDHHSDSTAPSHNLSTAFRLIKEMQKRFKTEEAEEREKEGAVKQDKLILSQNKLNPKLKDLLIRPNIIQKRITGSLEAHTNGFRYTSLRGDRIDVLYNNIKHAFFQPCDNEMIILLHFHLKNPVLWGKKKYKDVQFYTEVGEITTDLGKYHHMQDRDDMQSEQQEREMRRRLNAAFNSFCEKVSRLTNDQFEFDSPFAGLGFFGVPYRSATTLKPTASCLVNLTEWPTFIVTLSEVELVHFERVSLQLKNFDMVFIFKDYKIKPQMVAQIPMSSIDKIKEWLHTCDIWYSEGIQSLNWAKVMKTITDDLEAFFEEGGWSFLNVESDNEEAMDDSDDSDAYDPEEEDASAGSGSESDEDESEGEETESDDDDEGSLDSDESEGKDWSDLEEEAANADKRREVEEPSRDRDRKRPHSSKSGPSHKRRK
